Literature values, collected in patent US20110081293A1, “METHODS AND COMPOSITIONS RELATED TO CLOT-BINDING LIPID COMPOUNDS” (SANFORD-BURNHAM MEDICAL RESEARCH INSTITUTE, priority 2009, published 2011).

Conditions: PEGylated vitamin E alone; cited from earlier work

## CC(=O)O[C@H]1C(=O)[C@@]2(C)[C@H]([C@H](OC(=O)c3ccccc3)[C@]3(O)C[C@H](OC(=O)[C@H](O)[C@@H](NC(=O)c4ccccc4)c4ccccc4)C(C)=C1C3(C)C)[C@]1(OC(C)=O)CO[C@@H]1C[C@@H]2O [paclitaxel]
  solubilized concentration of hydrophobic drug: up to 2.5 mg/ml
